# Screening data, single-dose tests

The filed quantity is “Percent Effect” (%).
The controls that fix the scale are not given in the record; negative values are as filed.
This is an unselected part of the compounds tested.
Two or more numbers in one place are separate tests of the same structure; such repeats can differ widely.

Mtb cholesterol medium: 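Whole-cell growth test on Mycobacterium tuberculosis, read after 4 days in a medium based on cholesterol and the lipid DPPC; the read-out is not stated. Concentration: 50 µM. Direction is inferred from retests: higher values go with more growth inhibition. Of about 69,000 compounds tested this way, about 370 (0.54%) reached 50% or more in at least one test.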
Mtb glucose medium: 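Whole-cell growth test on Mycobacterium tuberculosis, read after 3 days in glucose-containing 7H9 medium; the read-out is not stated. Compounds at 50 µM. Direction is inferred from retests: higher values go with more growth inhibition. About 69,000 compounds were tested under these conditions; 1.1% (about 760) showed 50% or more at least once.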

SMILES | Mtb cholesterol medium | Mtb glucose medium
CC(Cn1ccnc1)NC(=O)Nc1ccccn1 (stereo not drawn) | -42.9 | -8.46
COc1cccc(CCn2ccnc2-c2cn(C3CCNCC3)nn2)c1 | -5.909 | -38.34
CCN(Cc1ccoc1)C(=O)NC1CCN(CC2CCCC2)CC1 | 10.44 | 31.96
O=C(O)C(F)(F)F.[H][C@]12CCN(Cc3ccc(CC)o3)[C@@]1([H])CCC(=O)N2 | -7.802 | -34.73
Cc1ccccc1CSc1nc(N)cc(N2CCOC(C(N)=O)C2)n1 (stereo not drawn) | -5.94 | 24.88
Cc1cc(C)nc(Nc2cncc(C3CCCN(S(C)(=O)=O)C3)n2)n1 (stereo not drawn) | -63.36 | -51.01
O=C(NC1CCN(c2ccccc2Br)C1)c1c[nH]nn1 (stereo not drawn) | 2.168 | 32.24
O=C1CC(c2cccnc2)c2c(c(C(=O)O)cn2-c2ccc(Cl)cc2)N1 (stereo not drawn) | -8.487 | 20.94
[H][C@]12CCCCN1CCC[C@H]2CNC(=O)Cn1ccc2cc(Br)ccc21 | -17.81 | -2.084
COc1cccc(Cn2ncnc2CCSC)c1 | -4.415 | 9.183
CCCn1cc(CN2CCCC2c2cccc(-n3ccnc3)n2)cn1 (stereo not drawn) | 14.39 | -2.02
NC(=O)C1CCN(C(=O)c2ccn(-c3cccc(Cl)c3)n2)C1 (stereo not drawn) | -3.337 | -32.9 and -5.316
CC(C)(CN1CCOCC1)CN1CCC(Cc2cccc(CO)c2)C1 (stereo not drawn) | -39.6 | -9.463
Cc1nc(CN2CCC3(CCCN(Cc4ccoc4)C3)C2=O)cs1.O=C(O)C(F)(F)F.O=C(O)C(F)(F)F (stereo not drawn) | -38.98 | -7.993
COc1ncccc1-c1nc(-c2ccccn2)nn1C1CCN(C)CC1 | 0.1195 | 5.749
Cc1nc(NC2CCN(S(=O)(=O)c3ccccc3)CC2)[nH]c(=O)c1C | -4.003 and -25.47 | -25.18
Cc1cc(NC(=O)CCN(CC2CCOC2)C2CC2)no1 (stereo not drawn) | -9.843 | 4.722
CC(C1CCN(Cc2cnn(C)c2C2CC2)CC1)N(C)C (stereo not drawn) | 15.83 | 6.605
Cc1nc(Nc2ccc(Cl)cn2)sc1C(=O)NCCCN1CCCCC1 | 14.06 and -0.842 | 47.43
Cc1nn(C)c(Cl)c1C1CCCN1CC(=O)N1CCCCC1 (stereo not drawn) | -12.34 | -27.79
COCc1ncc(CN2CCC(Oc3ccc(OC)cc3)CC2)cn1 | 4.397 | -11.33
Cn1cccc1C(=O)N1CCC2(CC1)CN(c1cncnc1)C(=O)CO2 | -7.427 | 26.32
[H][C@@]12CCN(Cc3ccsc3)C[C@]1(C(=O)N1CCCO1)CCO2 | 4.623 | 15.36
CCc1nnc(C2Cc3ccccc3CN2Cc2cc(C)no2)o1 (stereo not drawn) | 17.52 | 0.8386
CC(C)(O)CN1CCN(C(=O)c2ccn(-c3cccc(F)c3)n2)CC1 | -7.875 | -13.59
CCC(CC)CNCC1(S(C)(=O)=O)CCOCC1 | 11.11 | -0.4555 and 15.35
COCc1cc(O)nc(C2CCCN(Cc3ccc(F)cc3)C2)n1 (stereo not drawn) | -11.65 | 7.461
Cn1c(C2CC2)nc2c1CCN(CCc1ccccn1)C2 | 19.39 | 10.52
c1ccc2ncc(CC3CCNCC3)cc2c1 | -11.78 | -11
CN(CC(F)(F)F)C(=O)c1ccc(F)c(NS(C)(=O)=O)c1 | -10.16 | -25.7
CC(C)[C@@H]1CN(CCCOc2ccc(F)cc2)C[C@H]1NS(C)(=O)=O | -5.958 | -15.76
COc1ccc(CNc2nc(C3CC3)nc3c(C)nn(C)c23)cc1 | 14.37 | 76.58
CC(=O)N1N=C(c2ccncc2)OC1C(=O)N(C)CCc1ccccc1 (stereo not drawn) | 15.03 | 2.367
CC(NCCCC#N)c1ccc(S(C)(=O)=O)c(F)c1 (stereo not drawn) | -55.2 | -48.24
Cc1c(C(=O)N2CCC2)nnn1-c1ccc2ncccc2c1 | 14.89 | 18.56
N#Cc1ccc(N2CCC3(CC2)CC(OCc2cccnc2)CO3)cc1.O=C(O)C(F)(F)F (stereo not drawn) | 12.51 | 19.83 and 22.8
CCc1nc(N2CCC3(CCC(=O)N(Cc4ccncc4)C3)CC2)no1 | -34.53 | -6.102 and -57.6
CCC(NC(=O)c1ccco1)c1nc(C(F)(F)F)cs1 (stereo not drawn) | -6.167 | 17.32 and 0.3814
O=c1c(NCCc2ccc(O)cc2)c(NCc2ccncc2)c1=O | 6.761 | 20.24
CC(C)OCCCNC(=O)c1cccnc1N1CCOCC1 | -33.93 | 13.31
COCc1nc(C(=O)NS(=O)(=O)c2ccc(C)s2)cs1 | -3.33 | 0.2306
CCC(C)NS(=O)(=O)c1ccc(C(=O)N(C)C2(C#N)CCC2)cc1 (stereo not drawn) | -10.89 | -22.57
O=C(NCc1cc2n(n1)CCCN(Cc1ccc(Cl)s1)C2)C1CCC1 | -4.937 and -11.58 | 0.7928
C=C(C)CNC(=O)C1CCCN(C2CCN(C(C)C)CC2)C1 (stereo not drawn) | 3.509 | 5.549
Cc1ncc(CC(=O)N2CCC(N3C[C@@H](C)O[C@@H](C)C3)CC2)c(=O)[nH]1 | -4.518 | -28.41
CN1CCC(c2n[nH]cc2-c2ccnc(N)c2)C1 (stereo not drawn) | -2.041 and -1.429 | -4.635
CCOC(=O)c1c(NC(=O)CN2CCN(C(C)=O)CC2)sc2c1CCC2 | -18.59 | 1.55 and -6.103
CC(C)(O)CSCCNC(=O)c1ccc(F)cc1Cl | 8.916 | -13.62
CCN1CCOCC12CCN(C(=O)C1CCCC1)CC2.O=C(O)C(F)(F)F | -4.945 and -4.941 | 8.083
O=C1CC(c2ccc(O)cc2)c2c(n3ccsc3nc2=O)N1 (stereo not drawn) | -11.35 | 4.609
O=S(=O)(NCC(O)c1ccc2c(c1)CCO2)c1ccccc1F (stereo not drawn) | -7.442 | 13.77
CC(c1ccco1)N(C)C(=O)NCCOc1ccc(C#N)cc1 (stereo not drawn) | -0.2592 | 7.189
CC(c1ccc(Cl)cc1)N1CCN(CCS(N)(=O)=O)CC1 (stereo not drawn) | 4.609 and 1.919 | 8.378
COc1ccc(N(c2ccc(OC)cc2)c2ccc(C(=O)O)s2)cc1 | -13.45 | -30.31
CC(C)c1n[nH]c(C2CN(C(=O)Cn3ccccc3=O)CCO2)n1 (stereo not drawn) | -1.983 | 8.59
CCn1ncnc1C1CC(=O)NCc2nc(N)sc21 (stereo not drawn) | -16.8 | -2.806
CCS(=O)(=O)N1CCCN(CCCOC)CC1 | 1.698 | 20.8
Cc1nc(CNC(=O)Nc2ccc3c(c2)CCCC(=O)N3)sc1C | 7.556 | -19.16 and 43.57
Cc1c(C(=O)NC2(C#N)CCSC2)nnn1-c1ccccc1Cl (stereo not drawn) | 18.56 | 39.3
CCc1cc(N2CCC(F)(F)CC2)n2nc(C)c(C)c2n1 | -3.772 and -2.87 | -15.71

6 of the entries, repeated:

* NC(=O)C1CCN(C(=O)c2ccn(-c3cccc(Cl)c3)n2)C1 (stereo not drawn) : Mtb cholesterol medium: -3.337%; Mtb glucose medium: -32.9% and -5.316%
* CCS(=O)(=O)N1CCCN(CCCOC)CC1 : Mtb cholesterol medium: 1.698%; Mtb glucose medium: 20.8%
* O=C1CC(c2cccnc2)c2c(c(C(=O)O)cn2-c2ccc(Cl)cc2)N1 (stereo not drawn) : Mtb cholesterol medium: -8.487%; Mtb glucose medium: 20.94%
* COCc1ncc(CN2CCC(Oc3ccc(OC)cc3)CC2)cn1 : Mtb cholesterol medium: 4.397%; Mtb glucose medium: -11.33%
* CCc1nnc(C2Cc3ccccc3CN2Cc2cc(C)no2)o1 (stereo not drawn) : Mtb cholesterol medium: 17.52%; Mtb glucose medium: 0.8386%
* COCc1cc(O)nc(C2CCCN(Cc3ccc(F)cc3)C2)n1 (stereo not drawn) : Mtb cholesterol medium: -11.65%; Mtb glucose medium: 7.461%

From ChEMBL document CHEMBL3988442, “University of Dundee, Small-Polar-MMV Screening Library” (2021).